In paper PMC11515921, “Unraveling the molecular determinants of a rare human mitochondrial disorder caused by the P144L mutation of FDX2” (Protein Science : A Publication of the Protein Society, 2024):
Results are given in words; binding and its absence hold for the method and conditions named. Binding can be weak; no strength is given.

What was measured:
[1] = target: P144L [2Fe-2S] FDX2 (ferredoxin-2), residues 69-186 (human); test: NMR titration; mixtures of 15N-labeled [2Fe-2S]^2+ FDX2 (WT or P144L) and FDXRox at 1:0.5 and 1:1 ratio with 1 mM NADPH (excess); 1H-15N HSQC; both purified
[2] = target: WT [2Fe-2S] FDX2 (ferredoxin-2), residues 69-186 (human); test: as above
[3] = target: P144L [2Fe-2S] FDX2 (ferredoxin-2), residues 69-186 (human); test: NMR titration; 15N-labeled 150 μM [2Fe-2S]^2+ FDX2 (WT or P144L), unlabeled FDXRox added from 0.3 to 1.2 mol eq.; 1H-15N HSQC at 298 K, 900 MHz; 30 mM HEPES, 150 mM NaCl pH 7.5; both purified
[4] = target: WT [2Fe-2S] FDX2 (ferredoxin-2), residues 69-186 (human); test: as above

Measured: binding

B1: ferredoxin reductase FDXR, residues 33-491 (enzyme, UniProt P22570 33-491)
chain: STQEKTPQICVVGSGPAGFYTAQHLLKHPQAHVDIYEKQPVPFGLVRFGVAPDHPEVKNVINTFTQTAHSGRCAFWGNVEVGRDVTVPELREAYHAVVLSYGAEDHRALEIPGEELPGVCSARAFVGWYNGLPENQELEPDLSCDTAVILGQGNVALDVARILLTPPEHLERTDITKAALGVLRQSRVKTVWLVGRRGPLQVAFTIKELREMIQLPGARPILDPVDFLGLQDKIKEVPRPRKRLTELLLRTATEKPGPAEAARQASASRAWGLRFFRSPQQVLPSPDGRRAAGVRLAVTRLEGVDEATRAVPTGDMEDLPCGLVLSSIGYKSRPVDPSVPFDSKLGVIPNVEGRVMDVPGLYCSGWVKRGPTGVIATTMTDSFLTGQMLLQDLKAGLLPSGPRPGYAAIQALLSSRGVRPVSFSDWEKLDAEEVARGQGTGKPREKLVDPQEMLRLLGH
binds: [1] | [2] | [3] | [4]
